PMC2922378
No constants are given. Whether binding was seen depends on the method and setting. In cells and extracts the contact can be indirect. Some entries that bind do so weakly or less than the wild type.

Sequences of proteins named here, by UniProt entry; tags and fusion partners are left off.
UniProt Q14457: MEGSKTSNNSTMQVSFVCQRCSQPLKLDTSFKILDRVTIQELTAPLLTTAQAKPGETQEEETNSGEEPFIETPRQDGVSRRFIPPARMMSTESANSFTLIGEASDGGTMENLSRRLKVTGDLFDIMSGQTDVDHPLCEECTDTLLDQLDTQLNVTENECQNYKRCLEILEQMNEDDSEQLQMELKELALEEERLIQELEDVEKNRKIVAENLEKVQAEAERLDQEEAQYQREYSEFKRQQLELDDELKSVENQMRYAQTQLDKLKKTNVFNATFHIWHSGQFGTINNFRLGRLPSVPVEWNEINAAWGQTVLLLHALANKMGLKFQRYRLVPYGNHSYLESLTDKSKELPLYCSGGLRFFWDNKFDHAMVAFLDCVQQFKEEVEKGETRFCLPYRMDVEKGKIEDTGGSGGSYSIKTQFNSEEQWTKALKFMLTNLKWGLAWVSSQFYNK
UniProt P10415: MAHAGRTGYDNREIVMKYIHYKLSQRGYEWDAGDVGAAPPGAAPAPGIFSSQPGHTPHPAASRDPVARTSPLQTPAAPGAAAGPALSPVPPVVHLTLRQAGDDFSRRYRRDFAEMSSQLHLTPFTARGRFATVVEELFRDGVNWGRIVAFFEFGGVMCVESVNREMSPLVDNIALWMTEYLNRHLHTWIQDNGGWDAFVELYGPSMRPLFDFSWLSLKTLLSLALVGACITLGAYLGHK

Target: beclin-1 (human (endogenous in term placental cytotrophoblasts)) (UniProt Q14457)
Test: co-IP; lysates (RIPA buffer) of cytotrophoblastic cells subjected to hypoxia-reoxygenation, treated with 50 uM vitamins C and E or vehicles; precipitated with anti-beclin-1 and protein A/G plus-agarose, 4°C overnight; immunoblotted for Bcl-2 and Bcl-xL

binding: binds
Substance: Bcl-2 (from UniProt P10415 1-239)
